According to US11690902B2 (priority 2018, dated 2023):
Some entries share one result that the patent states for a list of compounds.

test system: human PBMCs of individuals naturally exposed to C. burnetii; type: cell-based

Sequence | Proportion of IGRA+ donors with IFNγ recall response to the peptide, SI cutoff of 2 | Proportion of IGRA+ donors with IFNγ recall response to the peptide, SI cutoff of 3
AENVLIIHNKTLAHRYLA [p31] | at least 10% of IGRA + donors (SI cutoff of 2) | 
EAVYKGFTPLKAEDIAEA [p19] | at least 10% of IGRA + donors (SI cutoff of 2) | 
GKHFDGIKVLKLSPQNTI [p12] | at least 20% of IGRA + donors (SI cutoff of 2), and | at least 10% of IGRA + donors (SI cutoff of 3)
KAQLIQLKTHVTINAT [p47] | at least 10% of IGRA + donors (SI cutoff of 2) | 
KIGVIKAIRTITGLGLKEA [p4] | at least 20% of IGRA + donors (SI cutoff of 2), and | at least 10% of IGRA + donors (SI cutoff of 3)
KIPVKIIKPPFVRRG [p17] | at least 20% of IGRA + donors (SI cutoff of 2), and | at least 10% of IGRA + donors (SI cutoff of 3)
LPPVTSSVAVKVPSS [p24] | at least 10% of IGRA + donors (SI cutoff of 2) | 
LRPVRYFTGVPSPVKTPE [p50] | at least 10% of IGRA + donors (SI cutoff of 2) | 
LSSIIHKLTSFSKTEA [p38] | at least 20% of IGRA + donors (SI cutoff of 2), and | at least 10% of IGRA + donors (SI cutoff of 3)
PDYVLNAVNHIRYKP [p14] | at least 20% of IGRA + donors (SI cutoff of 2), and | at least 10% of IGRA + donors (SI cutoff of 3)
REAVLFLVTIKELLEDP [p23] | at least 10% of IGRA + donors (SI cutoff of 2) | 
RLGFMSFFTKAVVEALKRF [p22] | at least 20% of IGRA + donors (SI cutoff of 2), and | at least 10% of IGRA + donors (SI cutoff of 3)
SHEVLHAMSRGVEVLA [p6] | at least 10% of IGRA + donors (SI cutoff of 2) | 
SPAVLSAAKKIFGDGA [p48] | at least 20% of IGRA + donors (SI cutoff of 2), and | at least 10% of IGRA + donors (SI cutoff of 3)
TPTFVIGNKALTKFGF [p2] | at least 10% of IGRA + donors (SI cutoff of 2) | 
VPGYRNASSKRFVAP [p46] | at least 10% of IGRA + donors (SI cutoff of 2) | 
